Assay results from PMC5554155.

Experiment: immunoblot, N-terminal Flag vs C-terminal epitopes, ldlD cells
Conditions: glycan lost; control: N15A-β1AR (Ser49 or Gly49 backbone), with Gal/GalNAc

B1: β1-adrenergic receptor (β1AR): N15A-3SA (Ser49 or Gly49 backbone) (protein)
parent chain: MGAGVLVLGASEPGALSSAAPLPDGAATAARLLVPASPPASLLPPASESPEPLSQQWTAGMGLLMALIVLLIVAGNVLVIVAIAKTPRLQTLTNLFIMSLASADLVMGLLVVPFGATIVVWGRWEYGSFFCELWTSVDVLCVTASIETLCVIALDRYLAITSPFRYQSLLTRARARGLVCTVWAISALVSFLPILMHWWRAESDEARRCYNDPKCCDFVTNRAYAIASSVVSFYVPLCIMAFVYLRVFREAQKQVKKIDSCERRFLGGPARPPSPSPSPVPAPAPPPGPPRPAAAAATAPLANGRAGKRRPSRLVALREQKALKTLGIIMGVFTLCWLPFFLANVVKAFHRELVPDRLFVFFNWLGYANSAFNPIIYCRSPDFRKAFQRLLCCARRAARRRHATHGDRPRASGCLARPGPPPSPGAASDDDDDDVVGATPPARLLEPWAGCNGGAAADSDSSLDEPCRPGFASESKV
For B1, the “other: proteolytic processing” value was “increases”.
